This passage reports AC50 and cell number change results from PubChem BioAssay AID2685 (National Center for Advancing Translational Sciences (NCATS), 2010).

The nature of the experiment: qHTS Assay for Lipid Storage Modulators in Drosophila S3 Cells.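 On cell number change: cells counted by Cell Tracker Red CMTPX staining in the red channel.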 Conditions: BODIPY lipid droplet fluorescence, 18-24 h; for cell number change: measured here: cell count max response, cells fed with added oleic acid. A digest of the protocol:
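Laser-scanning cytometry quantifies lipid droplet accumulation (500–530 nm total intensity; droplet/cell object ratio) in oleic acid-fed (400 uM added) Drosophila S3 cells treated with a concentration series. 20 uM Triacsin C defined 100% inhibition.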
On the technique in general: In qHTS, concentration-response curves come from the screen itself.

Where [1] appears, read: measured here: lipid fluorescence (Fed channel) AC50, cells fed with added oleic acid.
[2] abbreviates: measured here: cell number channel AC50, cells fed with added oleic acid.

The other results are listed elsewhere or left out. These are further read-outs of the screen, such as a control signal, another cell line or another target. No call is given for them. Most of these compounds were active or inconclusive in the main read-out, so they are no random draw. The note in brackets gives the kind of curve behind each potency; many fits are weak.

As usually defined, the AC50 is the midpoint of the concentration-response curve, whichever way the signal moves. Low readings indicate activity at low concentration, high ones activity only at high concentration. On to `COc1ccc(CCNC(=O)c2ccc(CS(=O)Cc3ccc(C)cc3)o2)cc1OC` (stereo not drawn), for which the AC50 under setting [1] was 6.51 µM [falling, single point].
As to `Cc1ccc(S(=O)(=O)N2CCN(C(=O)CC(C)n3nc(C)c(Cl)c3C)CC2)cc1` (stereo not drawn), the cell number change was found to be 5.65%.
For the compound `O=C(CSc1nnc(-c2ccccc2)c(-c2ccccc2)n1)N1CCOCC1`, the cell number change turned out to be 47%. Moreover, the AC50 under setting [2] was 3.26 µM [rising, partial curve]. Also, under setting [1], the AC50 was 2.31 µM [rising, partial curve].
`Cc1ccc(CN2CCNC(=O)C2CC(=O)NCc2csc(C(C)C)n2)cc1` (stereo not drawn): the cell number change worked out at 25.2%. Moreover, under setting [1], the concentration at half-maximal activity (AC50) is 8.2 µM [rising, partial curve, poor fit].
As to `CC1CCN(C(=O)Cn2nnc(-c3ccc(N)cc3)n2)CC1`, the cell number change was -14.3%. For the same compound, under setting [1], the half-maximal activity concentration (AC50) is 6.51 µM [rising, single point].
In the case of `CCc1ccc([C@@H]2CC=C(C(=O)O)[C@H](c3ccccc3)N2S(=O)(=O)c2ccc(C)cc2)cc1`, the cell number change came to 18%. Further, under setting [1], the concentration at half-maximal activity (AC50) is 3.26 µM [rising, partial curve].
Regarding `COc1ccc(C(=O)N/N=C/c2c(C)[nH]c(=O)[nH]c2=O)cc1`, the cell number change was -5.15%. Moreover, under setting [2], the half-maximal activity concentration (AC50) is 0.103 µM [falling, full curve, poor fit].
In the case of `N#CC(C#N)=C1C(=O)N(CCN2CCCCC2)c2ccccc21`, the cell number change stood at 14.7%. Also, under setting [1], the concentration at half-maximal activity (AC50) is 6.51 µM [falling, single point].
With `Cc1ccc(Cl)cc1NC(=O)c1cc2ccccc2cc1O`, the cell number change was -58.9%. Further, the AC50 under setting [2] is 16.4 µM [falling, single point]. Besides, the AC50 under setting [1] was 14.6 µM [falling, partial curve].
`CCc1cc(=O)oc2cc(OCC(=O)NC3CC(C)(C)NC(C)(C)C3)ccc12`: the concentration at half-maximal activity (AC50) under setting [1] was 29.1 µM [rising, single point].
Take `COC(=O)c1cccc(NC(=O)CN2CCN(Cc3ccccc3)CC2)c1`: the cell number change came out at 7.19%. Moreover, the half-maximal activity concentration (AC50) under setting [1] is 29.1 µM [rising, single point].
Consider `CC(C)c1cccc(C(C)C)c1NC(=O)CCN1C(=O)NC2(CCCC2)C1=O`, for which the cell number change was determined as 10.9%. Further, the half-maximal activity concentration (AC50) under setting [2] is 1.03 µM [rising, full curve, poor fit]. The AC50 under setting [1] was 6.51 µM [rising, single point].
In the case of `COc1ccc(CCN2CN(S(=O)(=O)c3ccccc3)c3nc4ccccc4nc32)cc1OC`, the cell number change was -0.427%. For the same compound, the concentration at half-maximal activity (AC50) under setting [1] is 0.366 µM [rising, full curve, poor fit].
On to `O=C(Cn1ncc2c1-c1ccccc1OC2)N1CCN(Cc2ccccc2)CC1`, for which the cell number change turned out to be 23.2%. Besides, the AC50 under setting [1] is 6.51 µM [rising, partial curve, poor fit].
Regarding `COc1ccc(N2C(=O)C(Cl)=C(Nc3ccccc3O)C2=O)cc1`, the cell number change turned out to be 20%. In addition, the concentration at half-maximal activity (AC50) under setting [1] was 0.13 µM [falling, full curve, poor fit].
Turning to `CC1C(C#N)=C(N)OC2=C1C(=O)CC(C)(C)C2` (stereo not drawn), the cell number change was 11.4%. Also, the AC50 under setting [2] was 0.13 µM [rising, full curve, poor fit].
As for `CN1CCN(C(=O)N2c3ccccc3C=Cc3ccccc32)CC1`, the cell number change turned out to be 3.77%. Also, the concentration at half-maximal activity (AC50) under setting [1] is 0.326 µM [rising, partial curve, poor fit].
In the case of `COc1cc2nc(-c3ccc(Br)o3)oc(=O)c2cc1OC`, the cell number change is -28.8%. In addition, the AC50 under setting [1] was 0.116 µM [rising, single point].
Consider `Cc1ccc(-n2nc(CN3CCOCC3)c(-c3ccccc3)c2N)cc1Cl`, for which the cell number change stood at 20.2%. Also, under setting [1], the AC50 was 0.058 µM [rising, full curve, poor fit].
For `Cc1cccnc1NC(=O)CSc1ncnc2sc(C)c(C)c12`, the cell number change is 29.7%.
`CSCc1nc2scc(-c3ccccc3)c2c(=O)[nH]1`: the cell number change came out at 87.3%. In addition, the AC50 under setting [2] was 29.1 µM [rising, single point]. The AC50 under setting [1] was 29.1 µM [rising, single point].
Turning to `O=C(NCc1ccccc1)OCCN1CCN(Cc2ccccc2)CCC1=O`, the cell number change was -35.6%. The AC50 under setting [2] is 16.4 µM [falling, single point]. Moreover, the half-maximal activity concentration (AC50) under setting [1] was 18.4 µM [falling, partial curve].
For `Cn1c(NCc2ccccc2)nc2c1c(=O)n(Cc1ccccc1)c(=O)n2C`, the AC50 under setting [1] was 2.91 µM [rising, partial curve].
As to `COc1ccc(OCC(=O)NCCC2=CCCCC2)c([N+](=O)[O-])c1`, the cell number change is 35.7%. The AC50 under setting [2] is 25.9 µM [rising, single point].
Turning to `N#Cc1ccccc1S(=O)(=O)N1CCN(CC(O)c2ccccc2)CC1` (stereo not drawn), the cell number change was -8.65%. The AC50 under setting [1] was 0.651 µM [falling, full curve, poor fit].
Turning to `CC(=O)Nc1ccc2c(c1)nc(CN1CCCC1)n2C`, the cell number change came out at 30.1%.
As for `CC1CCN(CC(=O)Nc2ccccc2Sc2ccccc2)CC1`, the cell number change was -36.4%. Further, the AC50 under setting [2] is 32.6 µM [falling, single point]. In addition, under setting [1], the AC50 is 16.4 µM [falling, partial curve, poor fit].
For `CC1CC1c1ccc(/C=C(\C#N)C(=O)Nc2cc(Cl)ccc2Cl)o1` (stereo not drawn), the cell number change was 3.47%. The AC50 under setting [1] was 0.00461 µM [rising, full curve, poor fit].
As for `COc1cccc(NC(=O)NCc2c(-c3ccccc3)noc2C)c1`, the cell number change was -38%. Besides, under setting [2], the AC50 is 29.1 µM [falling, single point]. Besides, the AC50 under setting [1] is 32.6 µM [falling, single point].
Turning to `CSc1ccc(S(=O)(=O)NCC(=O)OC(C)C(=O)NCc2ccccc2)cc1[N+](=O)[O-]` (stereo not drawn), the cell number change was -17%. Further, the concentration at half-maximal activity (AC50) under setting [1] is 29.1 µM [falling, single point].
In the case of `O=C(NNC(=O)c1cccs1)c1ccc(F)cc1`, the cell number change worked out at 1.25%.
Consider `O=C(C1CCCO1)N1CCN(c2c3c(nc4cc(-c5ccc(F)cc5)nn24)CCC3)CC1` (stereo not drawn), for which the cell number change was 10.6%. Moreover, the AC50 under setting [1] is 4.11 µM [rising, single point].
Take `O=C(CN(C(=O)CCC(=O)Nc1nccs1)c1cccc(F)c1)NCCc1ccccc1`: the cell number change is 235%. The AC50 under setting [2] is 29.1 µM [rising, single point].
Consider `CC(=O)Nc1ccc(S(=O)(=O)n2cnc3cc(C)c(C)cc32)cc1`, for which the cell number change is -36.8%. Also, the AC50 under setting [2] was 16.4 µM [falling, single point].
Turning to `NC(=O)C1CCN(C(=O)COc2ccc3c4c(c(=O)oc3c2)CCCC4)CC1`, the cell number change turned out to be 22%. For the same compound, under setting [1], the concentration at half-maximal activity (AC50) was 4.61 µM [rising, full curve].
Regarding `O=C(CNc1cc(S(=O)(=O)N2CCOCC2)ccc1N1CCCC1)NCc1ccco1`, the cell number change came out at 5.68%.
Regarding `Cc1ccccc1NC(=O)CSc1nnnn1C`, the cell number change is 15.8%. Further, under setting [1], the AC50 is 2.06 µM [rising, full curve].
Consider `Cc1ccc(N=Nc2c(=O)[nH]n3c(=O)cc(C)[nH]c23)cc1`, for which the cell number change was 27.6%. In addition, under setting [1], the AC50 was 29.1 µM [rising, single point].
On to `O=C(NCc1ccco1)C1CCN(C(=O)c2cc3sccc3n2Cc2ccc(Cl)cc2)CC1`, for which the cell number change was -56.9%. Under setting [2], the AC50 was 29.1 µM [falling, single point]. Also, the half-maximal activity concentration (AC50) under setting [1] is 16.4 µM [falling, partial curve].
With `COc1cnc(SCc2c(Cl)cccc2Cl)nc1Cl`, the cell number change was 28.2%. In addition, the AC50 under setting [1] is 32.6 µM [falling, single point].
With `COCCn1nnnc1C(c1ccc(OC)cc1)N1CCC(C)CC1` (stereo not drawn), the cell number change turned out to be 18.2%.
Still for that read-out and setting: the value for `O=C(O)c1cccc(S(=O)(=O)N2CCN(S(=O)(=O)c3ccc4ccccc4c3)CC2)c1` was -14%; that for `NNC(=O)c1ccc(OCC2CC(c3ccc(Cl)cc3)=NO2)cc1` (stereo not drawn) was 6.93%.
`O=C(/C=C/NCc1cccnc1)C(F)(F)C(F)(F)F`: the cell number change stood at 29.5%. Besides, the AC50 under setting [2] is 6.51 µM [rising, partial curve, poor fit]. Also, under setting [1], the concentration at half-maximal activity (AC50) was 6.51 µM [rising, partial curve, poor fit].
On to `CC1=Nn2c(nnc2-c2ccccc2F)SC1`, for which the cell number change amounted to 0.0661%. Further, under setting [1], the concentration at half-maximal activity (AC50) is 0.651 µM [falling, full curve, poor fit].
In the case of `Cn1c(=O)c2c(SCC(=O)NCCc3ccccc3)nc(C3CC3)nc2n(C)c1=O`, the cell number change turned out to be 16.3%. The AC50 under setting [2] was 0.00651 µM [rising, full curve, poor fit].
Regarding `CCc1cccc(OCCn2nc(C(=O)O)c3ccccc3c2=O)c1`, the cell number change was 12.7%.
`O=C(C1CCCN1S(=O)(=O)c1ccc(Br)cc1)N1CCOCC1` (stereo not drawn): the cell number change was 30.6%. In addition, the AC50 under setting [2] was 29.1 µM [rising, single point]. Besides, under setting [1], the half-maximal activity concentration (AC50) is 29.1 µM [rising, single point].
With `CC(C(=O)N1CCN(C)CC1)N1C(=O)c2ccccc2C1=O` (stereo not drawn), the cell number change is -23.6%. Also, the AC50 under setting [2] was 2.31 µM [falling, full curve, poor fit]. The AC50 under setting [1] is 9.2 µM [falling, partial curve].
For the compound `CC(=O)c1ccc(N2C(=O)C3C4C=CC(CC4)C3C2=O)cc1` (stereo not drawn), the cell number change was determined as 10.8%.
Turning to `CN(c1ccc(C(=O)Nc2ccc(Cl)cn2)cc1)S(=O)(=O)c1ccccc1`, the cell number change was -1.54%. Moreover, the AC50 under setting [1] is 0.651 µM [falling, full curve, poor fit].
Take `c1ccc(C2=Nn3c(nnc3-c3cc(-c4ccccc4)n[nH]3)SC2)cc1`: the cell number change is -30.6%. In addition, the AC50 under setting [2] is 32.6 µM [falling, single point].
As for `Cc1csc(=O)n1CC(=O)OCC(=O)NCc1ccc(F)cc1`, the cell number change came out at 4.58%.
On to `COc1ccccc1NC(=O)CNS(=O)(=O)c1ccccc1`, for which the AC50 under setting [2] is 2.91 µM [rising, partial curve] and the AC50 under setting [1] is 0.58 µM [falling, single point].
With `O=C(O)c1ccccc1C(=O)Nc1ccc(Br)c2cccnc12`, the cell number change is 109%. Under setting [2], the AC50 was 23.1 µM [rising, single point]. Also, under setting [1], the concentration at half-maximal activity (AC50) is 29.1 µM [rising, single point].
On to `Cc1nn(CCC(=O)NNC(=S)Nc2ccc(F)cc2)c(C)c1Br`, for which the AC50 under setting [1] is 1.84 µM [rising, partial curve].
As to `COc1ccc(C)cc1NC(=O)c1ccc(CN2CCN(c3ccccc3)CC2)cc1`, the cell number change was found to be 7.89%.
On to `Cc1ccc(OCc2nc3c4c(ncn3n2)-c2ccccc2CC42CCCC2)cc1`, for which the cell number change is -7.57%. For the same compound, the concentration at half-maximal activity (AC50) under setting [1] was 13 µM [rising, partial curve].
For the compound `O=C(O)c1ccccc1Sc1c([N+](=O)[O-])cc(C(F)(F)F)cc1[N+](=O)[O-]`, the cell number change came out at 3.1%.
In the case of `Cc1cccc(NCc2nc3ccccc3n2C)c1`, the cell number change is 21.4%. For the same compound, under setting [2], the half-maximal activity concentration (AC50) was 0.082 µM [rising, full curve, poor fit].
With `CN(C)CCNC(=O)/C=C/c1cn(-c2ccccc2)nc1-c1cc2ccccc2oc1=O`, the cell number change came to 23%. The AC50 under setting [2] is 0.461 µM [rising, full curve, poor fit]. The concentration at half-maximal activity (AC50) under setting [1] is 0.461 µM [rising, full curve, poor fit].
